According to PubChem BioAssay AID504467 (National Center for Advancing Translational Sciences (NCATS), 2011):
In all, about 330,000 compounds went through this assay and about 7,700 (2.3%) were called active. This list was built around the results that the source calls inconclusive (neither active nor inactive); the mix of calls is not that of the screen. Calls come from the whole dose curve; as a rule, active = well fitted inhibition curve with a large enough effect; inconclusive = small, poorly fitted or top-dose-only effect, or effect the other way; inactive = flat fitted curve, though single readings scatter. Potencies beside an inconclusive call are fits to weak or partial responses and may not hold up.

Assay: qHTS screen for small molecules that inhibit ELG1-dependent DNA repair in human embryonic kidney (HEK293T) cells expressing luciferase-tagged ELG1; note: nearly all actives have a fitted effect of over 55% in size
Details: HEK293T ELG1-luciferase reporter, luminescence, 16 h, DNA damage induced by 5-fluorouridine; series mostly up to 46.1 µM
Outline: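 Luminescence from the luciferase reporter, measured 30 min after ONE-Glo reagent at room temperature, was the read-out. Beforehand, 2,000 cells per well were exposed for 16 hr at 37 °C to 5-fluorouridine together with compound or vehicle.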
Potency is the fitted concentration of half-maximal effect.

Row | SMILES | Potency
1 | COC(=O)c1ccc(NC(=S)N2CCC(C(N)=O)CC2)cc1 | inactive
2 | Cc1cccc(C)c1NC(=O)CNC(=O)Cn1nc(C)c(C)c(C#N)c1=O | inactive
3 | Cc1nonc1C1CCCN1Cc1nc(-c2ccccc2Cl)oc1C (stereo not given) | inactive
4 | C[C@@H](C(=O)Nc1ccc2ccccc2c1)[C@H]1C[C@]1(C)[C@H](NC(=O)c1cccnc1)c1ccccc1 | active: 18.4 µM
5 | Clc1ccc(-n2ncc3c(NCc4cccs4)ncnc32)cc1 | inactive
6 | O=C(N/N=C\c1ccc(-c2ccc([N+](=O)[O-])cc2)o1)C1COc2ccccc2O1 (stereo not given) | inconclusive: 29.1 µM [inhibitor, single point]
7 | O=C(NCCc1ccccc1)C(=O)NCC1CCCN1S(=O)(=O)c1ccccc1 (stereo not given) | inconclusive: 18.3 µM [inhibitor, single point]
8 | O=C(c1cccs1)N1CCN(c2nc3ccccc3s2)CC1 | inactive
9 | O=C(Cc1ccc(S(=O)(=O)N2CCOCC2)s1)N(Cc1ccccc1)c1ccccc1 | inconclusive: 25.9 µM [inhibitor, single point]
10 | CCOc1ccc(NC(=O)c2cccs2)c([N+](=O)[O-])c1 | inconclusive: 4.11 µM [activator, partial curve]
11 | Cc1cccc(C)c1NC(=O)CNC(=O)CCCN1C(=O)c2cccc3cccc(c23)C1=O | inconclusive: 0.259 µM [activator, single point]
12 | CN(C)C=Nc1c(Br)cc(Br)c2nonc12 | inactive
13 | CCOc1cc(/C=C/C(=O)NCCc2ccc(S(N)(=O)=O)cc2)ccc1OCC(C)C | inconclusive: 25.9 µM [inhibitor, single point]
14 | COCCCn1nnnc1SCC(=O)Nc1nc(C)c(C)s1 | inconclusive: 25.9 µM [activator, partial curve, poor fit]
15 | COc1ccc(Cl)cc1C(Nc1cccnc1)c1ccc2cccnc2c1O (stereo not given) | inactive
16 | COc1ccc(Cl)cc1NC(=O)C1CCCN(c2ncnc3c2nc2n3CCCCC2)C1 (stereo not given) | inconclusive: 29.1 µM [inhibitor, single point]
17 | Cn1c(CCC(=O)Nc2ccc(F)cc2)nc2cc(S(=O)(=O)N3CCOCC3)ccc21 | inactive
18 | COc1cc(CNC(=O)c2ccccc2NC(=O)C2=C(C)OCCS2)cc(OC)c1OC | inconclusive: 14.6 µM [inhibitor, partial curve]
19 | COc1ccc(OC)c(-n2nnnc2SCC(=O)NCc2ccc3c(c2)OCO3)c1 | inconclusive: 20.6 µM [inhibitor, single point]
20 | CC(C)c1ccc2nc(SCC(=O)NCC3CCCO3)c(C#N)cc2c1 (stereo not given) | inconclusive: 20.6 µM [activator, partial curve]
21 | Cc1ccccc1N1CCN(C(=O)c2ccc(Oc3ccc(C(F)(F)F)cn3)cc2)CC1 | inconclusive: 18.4 µM [inhibitor, single point]
22 | CSc1nnc(NC(=O)c2ccc(S(=O)(=O)N3CCOCC3)cc2)s1 | inconclusive: 20.6 µM [activator, single point]
23 | COc1cccc(-c2nc3ccc(C(=O)NC(C)Cc4cccnc4)cc3o2)c1 (stereo not given) | inconclusive: 6.51 µM [activator, single point]
24 | CCOc1ccccc1NC(=O)c1ccc(S(=O)(=O)N2CCCCC2)cc1 | inactive

Row | SMILES | Potency
25 | S=c1[nH]nc(C2CCCCC2)n1/N=C/c1ccc(Cl)cc1 | inactive
26 | COc1ccc(N2CC(C(=O)NNC(=O)c3ccc(Br)cc3)CC2=O)c(OC)c1 (stereo not given) | inactive
27 | Cc1ccc(C(=O)Nc2ccc(S(=O)(=O)N3CCCC3)cc2)cc1 | inactive
28 | COc1ccc(Nc2cc3n(c(=O)n2)CCc2cc(OC)c(OC)cc2-3)cc1 | inconclusive: 6.51 µM [inhibitor, partial curve, poor fit]
29 | O=C1C[C@H]2CCCCC(=O)N3CC[C@@H](C1)[C@@H]23 | inactive
30 | Oc1ccccc1N1CCN(c2nc(-c3cccs3)nc3ccccc23)CC1 | inconclusive: 23.1 µM [inhibitor, single point]
31 | O=C(/C=C/c1cccs1)N1CCCC1 | inconclusive: 18.3 µM [activator, partial curve, poor fit]
32 | Cc1ccc(C(=O)NCCn2cc(SCC(=O)Nc3nnc(C)s3)c3ccccc32)cc1 | inconclusive: 4.11 µM [activator, single point]
33 | Cc1cc2oc(=O)cc(Cn3ncc(Cl)c(Cl)c3=O)c2cc1Cl | inconclusive: 29.1 µM [inhibitor, single point]
34 | O=C(Nc1cccc(-c2nc3ccccc3[nH]2)c1)c1ccco1 | inconclusive: 35.5 µM [inhibitor, single point]
35 | CCc1nn2cc(C(=O)c3cc(C)ccc3O)cnc2c1-c1ccc(F)cc1 | inconclusive: 29.1 µM [inhibitor, single point]
36 | c1ccc(C[n+]2c(-c3ccccc3)csc2Nc2ccccc2)cc1 | inconclusive: 29.1 µM [activator, single point]
37 | CCOC(=O)/C(C#N)=C/c1ccc(OCC(=O)Nc2ccc(C)c(C)c2)c(OC)c1 | inactive
38 | CCCCOc1ccc(-c2csc(N)n2)cc1[N+](=O)[O-] | inconclusive: 6.51 µM [activator, partial curve]
39 | COc1ccc2c(c1)sc(N)[n+]2Cc1cc(C)cc2cccnc12 | inconclusive: 2.91 µM [inhibitor, full curve]
40 | CCc1ccc(C(C)(O)C(CN2CCOCC2)c2ccccc2)cc1 (stereo not given) | inactive
41 | O=C(c1cccc([N+](=O)[O-])c1)N1CC2C3C=CC(C3)C2C1 (stereo not given) | inactive
42 | O=C1C(Nc2ccccc2)=C/C(=N/S(=O)(=O)c2cccs2)c2ccccc21 | active: 6.51 µM
43 | CC(=O)N=C1SC2CS(=O)(=O)CC2N1c1ccc(-c2nc3ccc(C)cc3s2)cc1 (stereo not given) | inconclusive: 8.2 µM [activator, partial curve]
44 | CCOc1cc(C)c(C(C)C)cc1S(=O)(=O)N1CC(C)OC(C)C1 (stereo not given) | inactive
45 | COc1ccccc1C(=O)Nc1ccc(N2CCCCC2)cc1 | inconclusive: 10.3 µM [activator, partial curve]
46 | COc1ccc(-c2cc(C(=O)OCC(=O)NC3CC3)c3ccccc3n2)cc1OC | inconclusive: 18.3 µM [inhibitor, single point]
47 | CCOC(=O)C1CCN(S(=O)(=O)c2ccc3c4c(cccc24)C(=O)N3)CC1 | inconclusive: 20.6 µM [inhibitor, partial curve, poor fit]
48 | CC(=O)NC12CC3CC(C1)CC(C(=O)OCC(=O)NC(=O)c1cccn1C)(C3)C2 | inconclusive: 5.17 µM [inhibitor, partial curve, poor fit]

Three entries from above, comma-delimited.
Row,SMILES,Potency
27,Cc1ccc(C(=O)Nc2ccc(S(=O)(=O)N3CCCC3)cc2)cc1,inactive
29,O=C1C[C@H]2CCCCC(=O)N3CC[C@@H](C1)[C@@H]23,inactive
45,COc1ccccc1C(=O)Nc1ccc(N2CCCCC2)cc1,"inconclusive: 10.3 µM [activator, partial curve]"

Next records

Row | SMILES | Potency
49 | O=C(NCCc1ccc(F)cc1)Nc1ccc([N+](=O)[O-])cc1 | inconclusive: 18.3 µM [activator, partial curve, poor fit]
50 | Cc1nc(NC(=O)CSc2nnc(-c3ccccc3)c(-c3ccccc3)n2)c(Cl)cc1Cl | inconclusive: 20.6 µM [inhibitor, partial curve]
51 | CC(C)C[C@@]12C(=O)N(c3cccc(F)c3)C(=O)N1[C@H](c1ccc(F)cc1)[C@@H]1C(=O)N(C3CCCCC3)C(=O)[C@@H]12 | inactive
52 | CCOC(=O)Cc1csc(NC(=O)CCc2ccc(S(=O)(=O)N3CCOCC3)cc2)n1 | active: 11.6 µM
53 | Cc1ccc(C(=O)O/N=C\c2ccc(N3CCCCC3)c([N+](=O)[O-])c2)cc1 | inactive
54 | Cc1cc(C)c2cc(CN(CCO)C(=O)Nc3ccc(Cl)cc3)c(=O)[nH]c2c1 | active: 18.4 µM
55 | O=C(Cc1cccs1)N1CCN=C1SCc1ccc(Br)cc1 | inconclusive: 14.6 µM [inhibitor, partial curve, poor fit]
56 | C/C(=N\NC(=O)c1nonc1N)c1cccs1 | inconclusive: 18.4 µM [activator, single point]
57 | COCCCn1c(C(=O)NC2CCCCC2C)cc2c(=O)n3cccc(C)c3nc21 (stereo not given) | active: 13 µM
58 | O=C(NNc1c(Cl)cc(Cl)cc1Cl)c1n[nH]c(=O)c2ccccc12 | inconclusive: 32.6 µM [activator, partial curve, poor fit]
59 | Cc1[nH]n(-c2cccc(Cl)c2)c(=O)c1-c1ccc(Cl)cc1 | inconclusive: 29.1 µM [inhibitor, single point]
60 | Cc1ccc(NC(=O)c2cc3ccccc3o2)nc1 | inconclusive: 2.31 µM [activator, partial curve]
61 | Cc1cccc(-c2n[nH]c(=S)n2/N=C/c2cccs2)c1 | inconclusive: 1.64 µM [inhibitor, partial curve, poor fit]
62 | COc1ccc(C2=NN(C(=O)CCC(=O)O)C(c3ccc(OC)cc3)C2)cc1 (stereo not given) | inactive
63 | c1cncc(-c2nc(-c3ccc4c(c3)OCCO4)cs2)c1 | inconclusive: 6.51 µM [activator, partial curve]
64 | O=C(Oc1ccc(/C=N/NC(=O)c2ccco2)cc1)c1ccccc1 | inconclusive: 2.06 µM [activator, full curve]
65 | Cc1cccc(N2CCN(C(=O)C3CCN(S(=O)(=O)c4c(C)noc4C)CC3)CC2C)c1 (stereo not given) | active: 20.6 µM
66 | Cc1ccc(C)c2nc3sc(C(=O)O)cc3cc12 | inactive
67 | COc1ccc(C(=O)CC(=O)c2ccc(OC)cc2)cc1 | inconclusive: 20.6 µM [activator, partial curve, poor fit]
68 | CSc1ccccc1OCc1cc(C(=O)N(C)CC2COCCO2)no1 (stereo not given) | inconclusive: 16.4 µM [activator, single point]
69 | Cc1ccc(C(=O)N(Cc2ccccc2)C(C)(C)C)cc1C | inactive
70 | CC(=O)Nc1cccc(-c2csc(Nc3ccc(Cl)cn3)n2)c1 | inconclusive: 4.61 µM [activator, partial curve]
